# PubChem BioAssay AID1259308 | NCATS – 2017
# Assay: 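Genes whose loss raises luciferase production in HEK293 cells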 (primary screen)
# System: human HEK293 embryonic kidney cells stably expressing firefly luciferase (HEK-CMV-Luc2-Hygro)
# Reagent: single siRNA against human genes, 0.8 pmol siRNA per well
# Duration: 72 h
# Measured: 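Luciferase light (ONE-Glo) measured on one replicate plate set and viability (CellTiter-Glo) on the other, scaled to a negative control siRNA, with robust z-scores and luciferase per cell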
# Reading the numbers: total luciferase, z-score and total luciferase, % of control: higher = more reporter protein produced; luciferase per cell, z-score: higher = more reporter output per viable cell; viable cells, % of control: higher = more viable cells
# Hit rule: 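An siRNA counts as active if its total luciferase robust z-score exceeds 3; genes with two or more such siRNAs out of three were retested with fresh siRNAs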
# Meaning of the calls: active = raised luciferase; inactive = no rise
# The deposit covers about 59,000 reagents; shown is a random part of them. About 1,510 of them (2.6%) were called active. 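Calls use total luciferase alone and ignore viability, so some active siRNAs may act by altering cell number.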 The numbers tell different reagents against one gene apart.
Gene,reagent no.,"total luciferase, z-score","total luciferase, % of control","luciferase per cell, z-score","viable cells, % of control",activity call
GPR153,1,-0.281,76.3,0.832,68.5,inactive
GPR153,2,-0.317,75.6,-0.797,104,inactive
GPR153,3,-0.0652,80.6,0.143,86.7,inactive
SOX18,1,-0.124,79.4,-0.562,103,inactive
SOX18,2,-0.399,74,-1.23,114,inactive
SOX18,3,2.35,129,1.73,91.1,inactive
ID2,1,0.0517,82.9,1.54,61.7,inactive
ID2,2,-0.893,64.1,-0.147,74.5,inactive
ID2,3,2.79,137,2.66,76.2,inactive
AIRE,1,-2.59,30.3,-2.69,68.8,inactive
AIRE,2,-1.11,59.8,-0.0105,67,inactive
AIRE,3,1.86,119,1.4,91.9,inactive
BCL9,1,0.909,100,0.486,98.3,inactive
BCL9,2,-2.77,26.7,-3.37,72.5,inactive
BCL9,3,-0.403,73.9,-0.623,97.3,inactive
BICRAL,1,-1.46,52.9,-1.08,78.5,inactive
BICRAL,2,0.115,84.2,-0.466,106,inactive
BICRAL,3,-0.521,71.5,-0.372,88.2,inactive
UGT3A1,1,-0.685,68.3,-0.925,97.3,inactive
UGT3A1,2,-0.133,79.2,0.142,85.3,inactive
UGT3A1,3,-0.874,64.5,-1.48,106,inactive
PPM1K,1,-0.279,76.3,0.732,70.3,inactive
PPM1K,2,-0.638,69.2,-0.698,92.9,inactive
PPM1K,3,-1.18,58.3,-0.998,84.8,inactive
SPOCK2,1,2.48,131,2.39,78.1,inactive
SPOCK2,2,-0.768,66.6,-0.443,83.6,inactive
SPOCK2,3,1,102,0.826,91.5,inactive
RTN4RL1,1,-1.55,51.1,-1.89,93.8,inactive
RTN4RL1,2,-0.681,68.3,-0.548,88.2,inactive
RTN4RL1,3,-0.699,68,-0.411,84.7,inactive
CBX3,1,-0.835,65.3,-1.33,103,inactive
CBX3,2,0.488,91.6,0.272,95.3,inactive
CBX3,3,2.42,130,1.43,99.6,inactive
SH3KBP1,1,-2.87,24.8,-2.27,50.5,inactive
SH3KBP1,2,1.17,105,1.48,79.5,inactive
SH3KBP1,3,-0.0424,81,-0.18,94.9,inactive
PRUNE1,1,0.247,86.8,0.0144,96.6,inactive
PRUNE1,2,-0.63,69.3,-0.645,91.8,inactive
PRUNE1,3,-0.518,71.6,-0.744,97.3,inactive
APCDD1L,1,-0.776,66.4,-0.0213,74.7,inactive
APCDD1L,2,-0.815,65.7,-1.22,101,inactive
APCDD1L,3,-0.0815,80.3,-0.273,96.4,inactive
BAG5,1,-0.327,75.4,-0.281,90.7,inactive
BAG5,2,-0.017,81.5,0.102,88.7,inactive
BAG5,3,2.7,136,1.68,97.4,inactive
ALG6,1,-0.562,70.7,-1,103,inactive
ALG6,2,0.572,93.3,-0.148,108,inactive
ALG6,3,0.551,92.8,0.394,93.5,inactive
ACVR2B,1,-0.724,67.5,-0.176,79,inactive
ACVR2B,2,1.52,112,1.71,79.9,inactive
ACVR2B,3,0.157,85,-0.209,100,inactive
SKINT1L,1,1.52,112,1,96.3,inactive
SKINT1L,2,-0.222,77.5,1.04,65.9,inactive
SKINT1L,3,-1.2,57.9,-0.619,76.2,inactive
DAPK2,1,1.28,107,0.8,97.2,inactive
DAPK2,2,0.179,85.5,-0.0528,96.8,inactive
DAPK2,3,0.215,86.2,-0.134,99.7,inactive

Laid out differently: 6 of the entries above.
{"Gene": "ALG6", "reagent no.": 2, "total luciferase, z-score": 0.572, "total luciferase, % of control": 93.3, "luciferase per cell, z-score": -0.148, "viable cells, % of control": 108, "activity call": "inactive"}
{"Gene": "ALG6", "reagent no.": 3, "total luciferase, z-score": 0.551, "total luciferase, % of control": 92.8, "luciferase per cell, z-score": 0.394, "viable cells, % of control": 93.5, "activity call": "inactive"}
{"Gene": "ACVR2B", "reagent no.": 1, "total luciferase, z-score": -0.724, "total luciferase, % of control": 67.5, "luciferase per cell, z-score": -0.176, "viable cells, % of control": 79, "activity call": "inactive"}
{"Gene": "ACVR2B", "reagent no.": 2, "total luciferase, z-score": 1.52, "total luciferase, % of control": 112, "luciferase per cell, z-score": 1.71, "viable cells, % of control": 79.9, "activity call": "inactive"}
{"Gene": "ACVR2B", "reagent no.": 3, "total luciferase, z-score": 0.157, "total luciferase, % of control": 85, "luciferase per cell, z-score": -0.209, "viable cells, % of control": 100, "activity call": "inactive"}
{"Gene": "SKINT1L", "reagent no.": 1, "total luciferase, z-score": 1.52, "total luciferase, % of control": 112, "luciferase per cell, z-score": 1, "viable cells, % of control": 96.3, "activity call": "inactive"}
